# The list shows a part of the results. Single values are uncertain, as repeats are few or missing.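 The apoptosis fraction was the count of cleaved-PARP antibody-stained nuclei relative to all DNA-stained nuclei, imaged in 1,536-well plates. Screening doses were set so most cells survived, and baseline and induced cleaved-PARP levels vary greatly across cell lines.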
# Columns and labels:
# Assay in all cases: cleaved PARP positive nuclei fraction relative to DMSO control; melanoma cells; higher = more apoptosis
# Conditions in all cases: library dose: low library concentration; 72 h
# 501Mel = tested on: 501Mel
# A101D = tested on: A101D
# A2058 = tested on: A2058
# A375 = tested on: A375
# C32 = tested on: C32
# CBRC008 = tested on: CBRC008 (line from a melanoma biopsy)
# CBRC014 = tested on: CBRC014 (line from a melanoma biopsy)
# CBRC016 = tested on: CBRC016 (line from a melanoma biopsy)
# CBRC017 = tested on: CBRC017 (line from a melanoma biopsy)
# CBRC034 = tested on: CBRC034 (line from a melanoma biopsy)
# COLO792 = tested on: COLO792
# COLO800 = tested on: COLO800
# COLO829 = tested on: COLO829
# G361 = tested on: G361
# IPC-298 = tested on: IPC-298
# IST-MEL1 = tested on: IST-MEL1
# LB2518-MEL = tested on: LB2518-MEL
# LOXIMVI = tested on: LOXIMVI
# MEL-HO = tested on: MEL-HO
Compound,cleaved PARP positive nuclei fraction (501Mel),cleaved PARP positive nuclei fraction (A101D),cleaved PARP positive nuclei fraction (A2058),cleaved PARP positive nuclei fraction (A375),cleaved PARP positive nuclei fraction (C32),cleaved PARP positive nuclei fraction (CBRC008),cleaved PARP positive nuclei fraction (CBRC014),cleaved PARP positive nuclei fraction (CBRC016),cleaved PARP positive nuclei fraction (CBRC017),cleaved PARP positive nuclei fraction (CBRC034),cleaved PARP positive nuclei fraction (COLO792),cleaved PARP positive nuclei fraction (COLO800),cleaved PARP positive nuclei fraction (COLO829),cleaved PARP positive nuclei fraction (G361),cleaved PARP positive nuclei fraction (IPC-298),cleaved PARP positive nuclei fraction (IST-MEL1),cleaved PARP positive nuclei fraction (LB2518-MEL),cleaved PARP positive nuclei fraction (LOXIMVI),cleaved PARP positive nuclei fraction (MEL-HO)
"CC1(C)CCC(c2ccc(Cl)cc2)=C(CN2CCN(c3ccc(C(=O)NS(=O)(=O)c4ccc(N[C@H](CCN5CCOCC5)CSc5ccccc5)c(S(=O)(=O)C(F)(F)F)c4)cc3)CC2)C1 + C=C(c1ccc(C(=O)O)cc1)c1cc2c(cc1C)C(C)(C)CCC2(C)C [Bexarotene] (first compound 0.4 µM, partner dose 2 µM)",170%,292%,50.4%,555%,132%,999%,1140%,754%,450%,180%,226%,134%,166%,95.9%,114%,184%,361%,295%,118%
"Cn1cnc2c(F)c(Nc3ccc(Br)cc3Cl)c(C(=O)NOCCO)cc21 [selumetinib] + CC(=O)c1c(C)c2cnc(Nc3ccc(N4CCNCC4)cn3)nc2n(C2CCCC2)c1=O [palbociclib] (first compound 0.015 µM, partner dose 0.04 µM)",1540%,128%,106%,252%,186%,44.7%,106%,37.4%,185%,45.3%,103%,109%,77.4%,162%,64.6%,316%,213%,96%,39.8%
"CC1(C)CCC(c2ccc(Cl)cc2)=C(CN2CCN(c3ccc(C(=O)NS(=O)(=O)c4ccc(N[C@H](CCN5CCOCC5)CSc5ccccc5)c(S(=O)(=O)C(F)(F)F)c4)cc3)CC2)C1 + C#Cc1cccc(Nc2ncnc3cc(OCCOC)c(OCCOC)cc23)c1 [erlotinib] (first compound 0.4 µM, partner dose 0.8 µM)",200%,489%,73.2%,274%,123%,473%,427%,403%,325%,44.1%,483%,37.7%,77%,294%,212%,166%,222%,190%,99%
"CCCCCCCCc1ccc(CCC(N)(CO)CO)cc1 [fingolimod] + Cn1c(Nc2ccc(C(F)(F)F)cc2)nc2cc(Oc3ccnc(-c4ncc(C(F)(F)F)[nH]4)c3)ccc21 [CHIR265] (first compound 2 µM, partner dose 0.08 µM)",1210%,220%,325%,634%,105%,106%,131%,71.6%,150%,41.4%,252%,109%,83.6%,158%,149%,168%,382%,136%,188%
"CCCCCCCCc1ccc(CCC(N)(CO)CO)cc1 [fingolimod] + Cn1nnc2c(C(N)=O)ncn2c1=O [temozolomide] (first compound 2 µM, partner dose 2 µM)",121%,51%,107%,380%,45.6%,66%,111%,32.1%,102%,67.6%,58.4%,162%,76.3%,88.3%,87.8%,42.4%,48.1%,283%,107%
"COc1ccc(C2=N[C@@H](c3ccc(Cl)cc3)[C@@H](c3ccc(Cl)cc3)N2C(=O)N2CCNC(=O)C2)c(OC(C)C)c1 [Nutlin-3] + CCCCCCCCc1ccc(CCC(N)(CO)CO)cc1 [fingolimod] (first compound 0.1 µM, partner dose 2 µM)",93%,33.7%,52.1%,996%,90%,28.2%,177%,54.7%,93.5%,29.4%,107%,205%,123%,133%,124%,59.7%,195%,141%,149%
"NC1(c2ccc(-c3nc4ccn5c(=O)[nH]nc5c4cc3-c3ccccc3)cc2)CCC1 + Clc1ccc(Nc2nnc(Cc3ccncc3)c3ccccc23)cc1 [vatalanib] (first compound 0.4 µM, partner dose 2 µM)",58%,57%,321%,150%,83.2%,98.8%,116%,43.6%,140%,68.2%,132%,95.1%,150%,152%,47.5%,201%,110%,109%,105%
"NC(=O)c1ccc(N(C(N)=O)c2c(F)cccc2F)nc1-c1ccc(F)cc1F + Cc1nc(Nc2ncc(C(=O)Nc3c(C)cccc3Cl)s2)cc(N2CCN(CCO)CC2)n1 [dasatanib] (first compound 0.4 µM, partner dose 0.004 µM)",138%,50.9%,281%,166%,84.7%,34.3%,101%,73.8%,175%,236%,208%,90.4%,88.7%,132%,114%,91.3%,226%,391%,142%
"Cn1sc(=O)n(Cc2ccccc2)c1=O + OCc1c[nH]c2ccccc12 [Indole-3-carbinol] (first compound 0.4 µM, partner dose 0.8 µM)",63.5%,49.3%,109%,83.7%,83.9%,24%,86.1%,78.9%,109%,48.8%,65.5%,40.1%,132%,50.6%,40.8%,52.1%,104%,87.3%,20.2%
"CC1(C)CCC(c2ccc(Cl)cc2)=C(CN2CCN(c3ccc(C(=O)NS(=O)(=O)c4ccc(N[C@H](CCN5CCOCC5)CSc5ccccc5)c(S(=O)(=O)C(F)(F)F)c4)cc3)CC2)C1 + CO[C@H]1C[C@@H]2CC[C@@H](C)[C@@](O)(O2)C(=O)C(=O)N2CCCC[C@H]2C(=O)O[C@H]([C@H](C)C[C@@H]2CC[C@@H](OCCO)[C@H](OC)C2)CC(=O)[C@H](C)/C=C(\C)[C@@H](O)[C@@H](OC)C(=O)[C@H](C)C[C@H](C)/C=C/C=C/C=C/1C [everolimus] (first compound 0.4 µM, partner dose 0.02 µM)",776%,243%,130%,1190%,357%,714%,685%,1680%,395%,47.6%,464%,208%,181%,467%,164%,236%,363%,962%,181%
"CS(=O)(=O)c1ccc(C(=O)Nc2ccc(Cl)c(-c3ccccn3)c2)c(Cl)c1 [vismodegib] + Nc1ccn([C@@H]2O[C@H](CO)[C@@H](O)C2(F)F)c(=O)n1 [gemcitabine] (first compound 1 µM, partner dose 0.0004 µM)",76.4%,81.8%,65.5%,42.6%,144%,66.1%,104%,37.6%,110%,61.8%,164%,96.6%,53.4%,108%,42.9%,110%,98.8%,91.5%,109%
"Cn1cnc2c(F)c(Nc3ccc(Br)cc3Cl)c(C(=O)NOCCO)cc21 [selumetinib] + C[C@]1(O)C[C@@H](c2nc(-c3ccc4ccc(-c5ccccc5)nc4c3)c3c(N)nccn32)C1 [OSI906] (first compound 0.015 µM, partner dose 0.4 µM)",2550%,118%,105%,620%,79.6%,48%,111%,73.6%,134%,335%,122%,98.9%,109%,170%,126%,107%,225%,30.4%,44.2%
"NC(=O)c1ccc(N(C(N)=O)c2c(F)cccc2F)nc1-c1ccc(F)cc1F + OCc1c[nH]c2ccccc12 [Indole-3-carbinol] (first compound 0.4 µM, partner dose 0.8 µM)",78.5%,116%,82.6%,52.8%,80.7%,45.4%,88.9%,103%,109%,69%,145%,174%,99.3%,92.8%,118%,128%,81.4%,168%,68.8%
"CN(c1ncccc1CNc1nc(Nc2ccc3c(c2)CC(=O)N3)ncc1C(F)(F)F)S(C)(=O)=O + C#Cc1cccc(Nc2ncnc3cc(OCCOC)c(OCCOC)cc23)c1 [erlotinib] (first compound 0.08 µM, partner dose 0.8 µM)",82%,67.1%,182%,281%,82.1%,148%,99.8%,60.6%,128%,36.5%,128%,39.3%,121%,116%,93.1%,139%,56.1%,119%,106%
"NC1(c2ccc(-c3nc4ccn5c(=O)[nH]nc5c4cc3-c3ccccc3)cc2)CCC1 + C[C@@H](Oc1cc(-c2cnn(C3CCNCC3)c2)cnc1N)c1c(Cl)ccc(F)c1Cl [Crizotinib] (first compound 0.4 µM, partner dose 0.2 µM)",145%,160%,155%,89.7%,95.2%,57.2%,91.9%,136%,120%,89.5%,143%,95.3%,92.1%,163%,81.7%,64.9%,104%,142%,53.1%
"CC1(C)CCC(c2ccc(Cl)cc2)=C(CN2CCN(c3ccc(C(=O)NS(=O)(=O)c4ccc(N[C@H](CCN5CCOCC5)CSc5ccccc5)c(S(=O)(=O)C(F)(F)F)c4)cc3)CC2)C1 + Cc1nc(Nc2ncc(C(=O)Nc3c(C)cccc3Cl)s2)cc(N2CCN(CCO)CC2)n1 [dasatanib] (first compound 0.4 µM, partner dose 0.004 µM)",85.2%,193%,117%,266%,113%,371%,635%,1430%,574%,273%,755%,67.2%,125%,151%,410%,60%,252%,372%,126%

# Four entries from above in a different format.
Compound	cleaved PARP positive nuclei fraction (501Mel)	cleaved PARP positive nuclei fraction (A101D)	cleaved PARP positive nuclei fraction (A2058)	cleaved PARP positive nuclei fraction (A375)	cleaved PARP positive nuclei fraction (C32)	cleaved PARP positive nuclei fraction (CBRC008)	cleaved PARP positive nuclei fraction (CBRC014)	cleaved PARP positive nuclei fraction (CBRC016)	cleaved PARP positive nuclei fraction (CBRC017)	cleaved PARP positive nuclei fraction (CBRC034)	cleaved PARP positive nuclei fraction (COLO792)	cleaved PARP positive nuclei fraction (COLO800)	cleaved PARP positive nuclei fraction (COLO829)	cleaved PARP positive nuclei fraction (G361)	cleaved PARP positive nuclei fraction (IPC-298)	cleaved PARP positive nuclei fraction (IST-MEL1)	cleaved PARP positive nuclei fraction (LB2518-MEL)	cleaved PARP positive nuclei fraction (LOXIMVI)	cleaved PARP positive nuclei fraction (MEL-HO)
CCCCCCCCc1ccc(CCC(N)(CO)CO)cc1 [fingolimod] + Cn1c(Nc2ccc(C(F)(F)F)cc2)nc2cc(Oc3ccnc(-c4ncc(C(F)(F)F)[nH]4)c3)ccc21 [CHIR265] (first compound 2 µM, partner dose 0.08 µM)	1210%	220%	325%	634%	105%	106%	131%	71.6%	150%	41.4%	252%	109%	83.6%	158%	149%	168%	382%	136%	188%
CCCCCCCCc1ccc(CCC(N)(CO)CO)cc1 [fingolimod] + Cn1nnc2c(C(N)=O)ncn2c1=O [temozolomide] (first compound 2 µM, partner dose 2 µM)	121%	51%	107%	380%	45.6%	66%	111%	32.1%	102%	67.6%	58.4%	162%	76.3%	88.3%	87.8%	42.4%	48.1%	283%	107%
COc1ccc(C2=N[C@@H](c3ccc(Cl)cc3)[C@@H](c3ccc(Cl)cc3)N2C(=O)N2CCNC(=O)C2)c(OC(C)C)c1 [Nutlin-3] + CCCCCCCCc1ccc(CCC(N)(CO)CO)cc1 [fingolimod] (first compound 0.1 µM, partner dose 2 µM)	93%	33.7%	52.1%	996%	90%	28.2%	177%	54.7%	93.5%	29.4%	107%	205%	123%	133%	124%	59.7%	195%	141%	149%
NC1(c2ccc(-c3nc4ccn5c(=O)[nH]nc5c4cc3-c3ccccc3)cc2)CCC1 + Clc1ccc(Nc2nnc(Cc3ccncc3)c3ccccc23)cc1 [vatalanib] (first compound 0.4 µM, partner dose 2 µM)	58%	57%	321%	150%	83.2%	98.8%	116%	43.6%	140%	68.2%	132%	95.1%	150%	152%	47.5%	201%	110%	109%	105%

# — the supplement of paper PMC4604168 (melanoma cell lines)
